Data taken from article PMC8001409.
No constants are given. Whether binding was seen depends on the method and setting. Binding seen in cells or lysates may run through a third protein. Some entries that bind do so weakly or less than the wild type. Where a sequence is shown, tags or fusion partners need not be part of it.

By UniProt entry, the sequences of proteins in these tests, tags left out.
UniProt P03372: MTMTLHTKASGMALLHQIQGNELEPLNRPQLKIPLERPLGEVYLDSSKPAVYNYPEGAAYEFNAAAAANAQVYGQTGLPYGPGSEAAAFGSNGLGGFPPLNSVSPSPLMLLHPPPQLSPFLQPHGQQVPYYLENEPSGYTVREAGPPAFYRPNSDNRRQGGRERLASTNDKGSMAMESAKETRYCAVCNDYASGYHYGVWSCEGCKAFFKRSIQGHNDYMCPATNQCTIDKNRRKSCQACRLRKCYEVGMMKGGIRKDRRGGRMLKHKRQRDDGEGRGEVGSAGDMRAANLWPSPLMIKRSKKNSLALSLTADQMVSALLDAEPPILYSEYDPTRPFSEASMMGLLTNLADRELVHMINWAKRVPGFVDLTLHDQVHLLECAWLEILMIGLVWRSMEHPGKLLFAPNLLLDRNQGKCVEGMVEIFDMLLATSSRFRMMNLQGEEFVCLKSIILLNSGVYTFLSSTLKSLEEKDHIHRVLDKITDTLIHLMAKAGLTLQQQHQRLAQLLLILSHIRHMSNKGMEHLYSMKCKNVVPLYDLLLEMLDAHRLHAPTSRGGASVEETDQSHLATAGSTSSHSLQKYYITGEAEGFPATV

B1: GFP-PARP7 (enzyme, UniProt Q7Z3E1 1-657)
chain: MEMETTEPEPDCVVQPPSPPDDFSCQMRLSEKITPLKTCFKKKDQKRLGTGTLRSLRPILNTLLESGSLDGVFRSRNQSTDENSLHEPMMKKAMEINSSCPPAENNMSVLIPDRTNVGDQIPEAHPSTEAPERVVPIQDHSFPSETLSGTVADSTPAHFQTDLLHPVSSDVPTSPDCLDKVIDYVPGIFQENSFTIQYILDTSDKLSTELFQDKSEEASLDLVFELVNQLQYHTHQENGIEICMDFLQGTCIYGRDCLKHHTVLPYHWQIKRTTTQKWQSVFNDSQEHLERFYCNPENDRMRMKYGGQEFWADLNAMNVYETTEFDQLRRLSTPPSSNVNSIYHTVWKFFCRDHFGWREYPESVIRLIEEANSRGLKEVRFMMWNNHYILHNSFFRREIKRRPLFRSCFILLPYLQTLGGVPTQAPPPLEATSSSQIICPDGVTSANFYPETWVYMHPSQDFIQVPVSAEDKSYRIIYNLFHKTVPEFKYRILQILRVQNQFLWEKYKRKKEYMNRKMFGRDRIINERHLFHGTSQDVVDGICKHNFDPRVCGKHATMFGQGSYFAKKASYSHNFSKKSSKGVHFMFLAKVLTGRYTMGSHGMRRPPPVNPGSVTSDLYDSCVDNFFEPQIFVIFNDDQSYPYFVIQYEEVSNTVSI
B2: GFP-PARP7 H532A (catalytically inactive mutant) (enzyme, UniProt Q7Z3E1 1-657)
chain: MEMETTEPEPDCVVQPPSPPDDFSCQMRLSEKITPLKTCFKKKDQKRLGTGTLRSLRPILNTLLESGSLDGVFRSRNQSTDENSLHEPMMKKAMEINSSCPPAENNMSVLIPDRTNVGDQIPEAHPSTEAPERVVPIQDHSFPSETLSGTVADSTPAHFQTDLLHPVSSDVPTSPDCLDKVIDYVPGIFQENSFTIQYILDTSDKLSTELFQDKSEEASLDLVFELVNQLQYHTHQENGIEICMDFLQGTCIYGRDCLKHHTVLPYHWQIKRTTTQKWQSVFNDSQEHLERFYCNPENDRMRMKYGGQEFWADLNAMNVYETTEFDQLRRLSTPPSSNVNSIYHTVWKFFCRDHFGWREYPESVIRLIEEANSRGLKEVRFMMWNNHYILHNSFFRREIKRRPLFRSCFILLPYLQTLGGVPTQAPPPLEATSSSQIICPDGVTSANFYPETWVYMHPSQDFIQVPVSAEDKSYRIIYNLFHKTVPEFKYRILQILRVQNQFLWEKYKRKKEYMNRKMFGRDRIINERHLFAGTSQDVVDGICKHNFDPRVCGKHATMFGQGSYFAKKASYSHNFSKKSSKGVHFMFLAKVLTGRYTMGSHGMRRPPPVNPGSVTSDLYDSCVDNFFEPQIFVIFNDDQSYPYFVIQYEEVSNTVSI

Biological target: FLAG-ERα (estrogen receptor α) (UniProt P03372)
Assay: co-IP; COS-1 cells co-transfected with FLAG- or 3xFLAG-ERα constructs and GFP-PARP7 constructs. Full-length ERα samples were treated with DMSO or E2 for 24 h; truncated variants were not treated with E2. Lysis in 200 mM NaCl, 20 mM Hepes, 1% Nonidet P-40. Anti-FLAG (M2) with Protein G Dynabeads, 2 h at 4 °C, five washes. Blotted with anti-GFP, anti-FLAG and anti-ADP-ribose.

Row | Binder | binding
1 | B1 | binds
2 | B2 | binds
